Test results reported in article PMC7819943, “Rice protein-binding microarrays: a tool to detect cis-acting elements near promoter regions in rice”.
Some of the results follow.

Each sequence was assayed against T1, OsSMF1 (Oryza sativa, UniProt Q6ZLB0 1-436) (assay: protein-binding microarray (RPBM); PBS, 2% BSA, 51.3 ng/ul salmon testes DNA, 50 uM zinc acetate, 200 nM TF, 25 C, 1 h; high values mean tight binding). Details: protein: recombinant; tags: N-terminal polyhistidine and DsRed monomer fusion (pET32a); chain copies: 2; label: CyDye5-dUTP incorporated in the synthesized complementary strand; 3' TTTTT single-stranded linker to array surface; dsDNA, one strand shown.
T1 sequence: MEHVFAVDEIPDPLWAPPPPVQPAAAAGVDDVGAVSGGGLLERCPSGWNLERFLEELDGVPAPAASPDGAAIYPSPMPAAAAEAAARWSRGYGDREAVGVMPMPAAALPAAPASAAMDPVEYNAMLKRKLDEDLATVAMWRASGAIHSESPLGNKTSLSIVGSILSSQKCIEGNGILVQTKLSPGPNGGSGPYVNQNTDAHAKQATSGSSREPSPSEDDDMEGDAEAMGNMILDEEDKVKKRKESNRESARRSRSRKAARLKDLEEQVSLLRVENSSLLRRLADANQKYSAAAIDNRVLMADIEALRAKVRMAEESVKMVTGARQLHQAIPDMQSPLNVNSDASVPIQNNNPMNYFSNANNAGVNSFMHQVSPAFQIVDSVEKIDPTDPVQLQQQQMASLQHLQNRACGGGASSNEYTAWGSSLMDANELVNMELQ
Summary of the method: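 Binding signal is defined as the fluorescence intensity of each feature in arbitrary units, read on an Axon 4000B scanner. Transcription factors with N-terminal polyhistidine and DsRed fusions came from E. coli BL21-CodonPlus and were purified on Ni–NTA. They were incubated at 200 nM for 1 h at 25 °C on a custom Agilent array that had been made double-stranded with Cy5-dUTP, with 50 µM zinc acetate present, and the array was washed.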

Sequence	binding signal
ATAGTTCGTTGTCGTGCATGATGTGTACACGAAAGCTTTGCGGAGTCACCTAGTGCAG	5700 fluorescence intensity (a.u.)
GTGATTAATAAATAATATACACCTCATATTTAGTGTTGGTCGGAGTCACCTAGTGCAG	4950 fluorescence intensity (a.u.)
CCCGCTCAGCCCATGCGCCACCCGCCGCCGCGGCTGCCACCGGAGTCACCTAGTGCAG	3560 fluorescence intensity (a.u.)
AAATGATGTCACACCTTGACGCATGAAATTACCACCACCTCGGAGTCACCTAGTGCAG	3430 fluorescence intensity (a.u.)
GCTTAATGTGTCAACCGGACAGATTTCTGAGAACCTTGCACGGAGTCACCTAGTGCAG	3480 fluorescence intensity (a.u.)
TTAGCAAGTGCCTATGTGAGGATATAGCAATATTTCAATGCGGAGTCACCTAGTGCAG	42200 fluorescence intensity (a.u.)
GCAAGTAAGAGTCGAGTTGAGATGGGAGGTGTAATGTAGGCGGAGTCACCTAGTGCAG	3220 fluorescence intensity (a.u.)
TGTGAGTGTGTGACTAGTGCGGCGACTGTGCAGTGGTGTTCGGAGTCACCTAGTGCAG	4110 fluorescence intensity (a.u.)
TGTCTTCCCTAAATAGGGTGTGAAGTCATGCTGCATAACGCGGAGTCACCTAGTGCAG	3200 fluorescence intensity (a.u.)
ATGCCAGCCTAGCCTAGCCCATGTAAGCGCACGTGTTCAGCGGAGTCACCTAGTGCAG	3290 fluorescence intensity (a.u.)
AACTTAATTAGCGGCGAATAGTCGTGACACGTATTTTGTGCGGAGTCACCTAGTGCAG	7020 fluorescence intensity (a.u.)
CCGAGACTGACAACAGTGCAGCCAAGTCAACATCTCACAACGGAGTCACCTAGTGCAG	3240 fluorescence intensity (a.u.)
GCAACAGTGTTATGCAACAGTGTCATTCAGTCTCTACACACGGAGTCACCTAGTGCAG	32000 fluorescence intensity (a.u.)
GATCCACCACATCGTCGACGGCCTATCCACAACATCGTCGCGGAGTCACCTAGTGCAG	3570 fluorescence intensity (a.u.)
CGAAGCGATGGTAGGCAGGAACACGCTGTCAGCATAGTTGCGGAGTCACCTAGTGCAG	4070 fluorescence intensity (a.u.)
TTGTTCCTTTACAGTTTACAGTCATCTCTATTGTAGTATTCGGAGTCACCTAGTGCAG	4220 fluorescence intensity (a.u.)
CATAGCGCGGGCGGCGGCGGCTGCCAAGCGCCGTCATCTGCGGAGTCACCTAGTGCAG	3470 fluorescence intensity (a.u.)
ACCCACCAAACACATCCACGTCCCTTCACCGTTGGCCTTCCGGAGTCACCTAGTGCAG	5980 fluorescence intensity (a.u.)
AACCTCTGACCTTTTGCGGCCCGCATCTGAGTCACCGACACGGAGTCACCTAGTGCAG	12500 fluorescence intensity (a.u.)
GCCTCCGTAAGGTGGGGTGTGTGTGTGTTGGCCATCGGTGCGGAGTCACCTAGTGCAG	3640 fluorescence intensity (a.u.)
CTCCTCACACATTCCCACGCACACATTTCCCCATGCACATCGGAGTCACCTAGTGCAG	3180 fluorescence intensity (a.u.)

A section taken from the entries so far:
Sequence	binding signal
TGTGAGTGTGTGACTAGTGCGGCGACTGTGCAGTGGTGTTCGGAGTCACCTAGTGCAG	4110 fluorescence intensity (a.u.)
TGTCTTCCCTAAATAGGGTGTGAAGTCATGCTGCATAACGCGGAGTCACCTAGTGCAG	3200 fluorescence intensity (a.u.)

(further entries)

Sequence	binding signal
TGGTGGTGGTGGTGGTAGGGTTAGGGGTAGGAGGGGTCTCCGGAGTCACCTAGTGCAG	3850 fluorescence intensity (a.u.)
GCGGCGGCTTTCCACCTCCCCGCCGGCTTCGCGCTCCCAACGGAGTCACCTAGTGCAG	29900 fluorescence intensity (a.u.)
GGCCGGCGGCGGCGGCAAGAGGAGCCAGCTCACCGTGTTCCGGAGTCACCTAGTGCAG	4400 fluorescence intensity (a.u.)
CGGACGTTTTCTCTCGGGTCAAGACTGCCACGTGTCGACACGGAGTCACCTAGTGCAG	18600 fluorescence intensity (a.u.)
CACCATAGAAATCGATTTGCACCGGTTTCCCAAGACGTGGCGGAGTCACCTAGTGCAG	3280 fluorescence intensity (a.u.)
CCGTCGCACTCAACGCTCTGTTTCACACACGCACGCACCCCGGAGTCACCTAGTGCAG	3480 fluorescence intensity (a.u.)
TCGATCGACCTCTGCTGCTGCCTCGCTGTCCTCTGCTACGCGGAGTCACCTAGTGCAG	3440 fluorescence intensity (a.u.)
GCCCGCCCACGGAGGCGCGCCACGGACACGTCCGGCGCGCCGGAGTCACCTAGTGCAG	3180 fluorescence intensity (a.u.)
CTCCTCCCGTCTCGTCGTCGTCACCGCCGCCGGCTCACCCCGGAGTCACCTAGTGCAG	5160 fluorescence intensity (a.u.)
CAAGCCGGGTGGGAAGGGGCGGGACTCCATACTGCTGCCGCGGAGTCACCTAGTGCAG	3170 fluorescence intensity (a.u.)
TGATCAATCAAGAAGACGATCGTGCCGATATCATGGCACCCGGAGTCACCTAGTGCAG	3940 fluorescence intensity (a.u.)
CTTCCTCCTCCGCCGCCGCCGTCGCCGCCCGGACTCACTACGGAGTCACCTAGTGCAG	5340 fluorescence intensity (a.u.)
GATGTAGACAGTGCATCGTTCACACATATGGGAGAGGCATCGGAGTCACCTAGTGCAG	22200 fluorescence intensity (a.u.)
AAAATTTAATACGACGAATGTTCAAACGGTGCAAGCAAAACGGAGTCACCTAGTGCAG	45000 fluorescence intensity (a.u.)
GGACGAGGGGAGGTAGCGCCAACGCAACCGCTAGCTGCCGCGGAGTCACCTAGTGCAG	3230 fluorescence intensity (a.u.)
GGGAGTAGGGAGATCGATCCACCTCCGCCATGCTCCTTCCCGGAGTCACCTAGTGCAG	3260 fluorescence intensity (a.u.)
TTAGATATATTGACACATATTTAAAGTATTAAACGTAGTCCGGAGTCACCTAGTGCAG	3620 fluorescence intensity (a.u.)
GTCGGACAACTCCGAGAGCTCCAACGCGGCGACCAACTCGCGGAGTCACCTAGTGCAG	3230 fluorescence intensity (a.u.)
TTTTCCGTGCTCTTCCCGTTTCCTTCGACACGTCGAGTGGCGGAGTCACCTAGTGCAG	4420 fluorescence intensity (a.u.)
TATACCCACGTGAGGACGTAAGGTCACTATCTTTCCACCTCGGAGTCACCTAGTGCAG	3770 fluorescence intensity (a.u.)
TATTCTAATGCCACTTAAACGCCACATCAACGCCACGTAGCGGAGTCACCTAGTGCAG	14000 fluorescence intensity (a.u.)
